Laboratory results: PubChem BioAssay AID504784 (Drosophila RNAi Screening Center, 2011)
The screen tested about 17,000 reagents; shown is an unselected part of those that have a named target and a result. 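Each column is one replicate's B-score; the combined score over replicates was not deposited, so single values may mislead.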 Reagents against one gene are numbered here. Not all columns of the deposit are shown.

Aim: 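Genome-wide knock-down for genes giving too much or too little stored lipid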 (primary screen)
Cells: Drosophila Kc167 embryonic cells
Knock-down reagent: long dsRNA against Drosophila genes, about 250 ng dsRNA per well
Time to read-out: 4 days
Conditions: cells fed 400 µM oleic acid bound to BSA
Measured: 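Cells imaged and segmented; ratio of lipid droplet area to nuclear area, log-transformed, then normalised as a B-score over the screen; higher means more stored lipid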
Reading the numbers: droplet/nuclear area B-score: higher = more stored lipid (overstorage)

droplet/nuclear area B-score, replicate 1, by predicted target and reagent
Vps26: #1 -1.08
pHCl-2: #1 -1.65
CG42445: #1 -1.38
CG34221: #1 0.0394
CG33639: #1 0.91; #2 -1.1
Gp210: #1 -0.97; #2 0.247
RpL7A: #1 1.69
Gpb5: #1 -0.322
NijB: #1 -0.775

A portion of the results above, for reference:
droplet/nuclear area B-score, replicate 1, by predicted target and reagent
CG42445: #1 -1.38
CG34221: #1 0.0394
CG33639: #1 0.91; #2 -1.1
Gp210: #1 -0.97

The list goes on.
droplet/nuclear area B-score, replicate 1, by predicted target and reagent
vir-1: #1 0.902; #2 0.164
betaTub65B: #1 -0.94
Mst57Db: #1 0.617
CG30196: #1 0.846
CG16825: #1 -1.31
CG1750: #1 0.644
CG6418: #1 -0.437
Ir21a: #1 1.09
ras: #1 -0.443
CG42700: #1 -1.18; #2 -0.822; #3 -1.28
CG15572: #1 -0.441
CG6220: #1 -0.115
CG32655: #1 0.935
CG3009: #1 -1.36
Drsl3: #1 0.212
CG34409: #1 0.793; #2 -0.966
Rift: #1 0.285
boil: #1 0.00419
CG14207: #1 -1.08; #2 0.0141
